Most values lie at the floor of the assay. Slopes are relative: functional sequences can read slightly below zero.
test system: Saccharomyces cerevisiae PS128 hsf1 delta, HSF1(1-493) fusion; assay: growth estimate (transactivation domain function in HSF1 fusion, heat-shock survival) (a.u. (slope of normalised read count over time)); higher = stronger growth at 37°C, i.e. more transactivation activity; conditions: library: random library

**Q.** With KFVASNWAADRENGSETEST as the substance, how does the growth estimate read?
**A.** < -0.25

**Q.** How did the growth estimate turn out when KFVGIALLCLKHNPKHRAAV was run?
**A.** < -0.25

**Q.** Which growth estimate does the source give for KGCDRVSCKSQ here?
**A.** < -0.25

**Q.** Which growth estimate does the source give for KGDRTRLPDSVINVDIFYGS here?
**A.** < -0.25

**Q.** KGEPSQTSWPKQALH was tested. Which growth estimate did it give?
**A.** < -0.25

**Q.** For KGFSEVESPGGF, which growth estimate is on record?
**A.** < -0.25

**Q.** For KGGSCVECHLAHESKTPSPW, which growth estimate is on record?
**A.** < -0.25

**Q.** For KGGWPPSGCRPEEIPSSTLV, which growth estimate is on record?
**A.** < -0.25

**Q.** How did the growth estimate turn out when KGHHLCRAVYGTSSVAGVEL was run?
**A.** < -0.25

**Q.** How did the growth estimate turn out when KGIGSMHVQSVGRISKEVGI was run?
**A.** < -0.25

**Q.** With KGIPVSEKQGCGSADSGLSS as the substance, how does the growth estimate read?
**A.** < -0.25

**Q.** How did the growth estimate turn out when KGKERSNHCGQAKKGLEALR was run?
**A.** < -0.25

**Q.** How did the growth estimate turn out when KGKLTPEIQPGHH was run?
**A.** < -0.25

**Q.** KGNRIFCN was tested. Which growth estimate did it give?
**A.** < -0.25

**Q.** KGPEGADRSCEQHVQTLVGI was tested. Which growth estimate did it give?
**A.** < -0.25

**Q.** For KGQPRNAGVLHYV, which growth estimate is on record?
**A.** < -0.25

**Q.** How did the growth estimate turn out when KGRI was run?
**A.** < -0.25

**Q.** Which growth estimate does the source give for KGRLSKCAVLTCT here?
**A.** < -0.25

**Q.** For KGSVNRIVAMSGCVQLRQRP, which growth estimate is on record?
**A.** < -0.25

**Q.** With KGTQFLGLRWRT as the substance, how does the growth estimate read?
**A.** < -0.25

**Q.** How did the growth estimate turn out when KGTVLNCYHRLVGNEPEPLR was run?
**A.** < -0.25

**Q.** With KGV as the substance, how does the growth estimate read?
**A.** < -0.25

**Q.** How did the growth estimate turn out when KGVDWP was run?
**A.** < -0.25

**Q.** KGVSRPVASTTLPGGKRHFA was tested. Which growth estimate did it give?
**A.** < -0.25

**Q.** KGVSWP was tested. Which growth estimate did it give?
**A.** 0.066

**Q.** Which growth estimate does the source give for KGVTNKL here?
**A.** < -0.25

**Q.** KGVVVPRVYRSSLCAERVGN was tested. Which growth estimate did it give?
**A.** < -0.25

**Q.** Which growth estimate does the source give for KHCTLRPLVPLRSYRCDFLN here?
**A.** < -0.25

**Q.** For KHE, which growth estimate is on record?
**A.** < -0.25

**Q.** Which growth estimate does the source give for KHEGGGPWAVIFSKREVWLA here?
**A.** < -0.25

**Q.** With KHGGLRLICISMGSFSQIDA as the substance, how does the growth estimate read?
**A.** 0.146

**Q.** How did the growth estimate turn out when KHGPKVKSSAPARFDTVGLL was run?
**A.** < -0.25

**Q.** With KHGRLPRFIRE as the substance, how does the growth estimate read?
**A.** < -0.25

**Q.** Which growth estimate does the source give for KHLGMGNVMHKCENFHVKIG here?
**A.** < -0.25

**Q.** For KHNSM, which growth estimate is on record?
**A.** < -0.25

**Q.** With KHNWVLG as the substance, how does the growth estimate read?
**A.** < -0.25

**Q.** With KHNWW as the substance, how does the growth estimate read?
**A.** < -0.25

**Q.** KHTGQRGANSDLATPPFEPQ was tested. Which growth estimate did it give?
**A.** < -0.25

**Q.** KHWSRDRGEVRKCIRNAEGL was tested. Which growth estimate did it give?
**A.** < -0.25

**Q.** KIAG was tested. Which growth estimate did it give?
**A.** < -0.25

**Q.** For KIESGKLGLINEISPHNGDC, which growth estimate is on record?
**A.** < -0.25

**Q.** How did the growth estimate turn out when KILSGIPCTHSA was run?
**A.** < -0.25

**Q.** With KILVRSPRHCRYSGASGPSG as the substance, how does the growth estimate read?
**A.** < -0.25

**Q.** How did the growth estimate turn out when KIRE was run?
**A.** < -0.25

**Q.** With KIS as the substance, how does the growth estimate read?
**A.** < -0.25

**Q.** How did the growth estimate turn out when KITNMFVTDTYSHLYG was run?
**A.** < -0.25

**Q.** With KIVLRGGIPVSCP as the substance, how does the growth estimate read?
**A.** < -0.25

**Q.** KIVRDKVGPLIRQINESADG was tested. Which growth estimate did it give?
**A.** < -0.25

**Q.** How did the growth estimate turn out when KKDGLFISRSAWRNMNRPNP was run?
**A.** < -0.25

**Q.** For KKGGAPSSCVDGEIGHPAAP, which growth estimate is on record?
**A.** < -0.25

**Q.** Which growth estimate does the source give for KKL here?
**A.** < -0.25

**Q.** With KKQPVDWGQLRVSTHIL as the substance, how does the growth estimate read?
**A.** < -0.25

**Q.** How did the growth estimate turn out when KKRQELRHTGCILVMGDPLQ was run?
**A.** < -0.25

**Q.** With KKTL as the substance, how does the growth estimate read?
**A.** < -0.25

**Q.** For KKTVGWGKMSCRSRQNPRLP, which growth estimate is on record?
**A.** < -0.25

**Q.** KLAACAHRLRLVIGWSEQRG was tested. Which growth estimate did it give?
**A.** < -0.25

**Q.** KLASEPEFTL was tested. Which growth estimate did it give?
**A.** < -0.25

**Q.** Which growth estimate does the source give for KLCCAHLLSAGCSLNVTSAG here?
**A.** < -0.25

**Q.** KLCTRGLLSCDIPTWKRPRD was tested. Which growth estimate did it give?
**A.** < -0.25

**Q.** For KLDVWRGLTNSISGPIGSGI, which growth estimate is on record?
**A.** < -0.25

**Q.** With KLEPGARSPDSLCLNRFLSG as the substance, how does the growth estimate read?
**A.** < -0.25

**Q.** For KLERRQLDLKCLT, which growth estimate is on record?
**A.** < -0.25

**Q.** KLFLECSSDNTSCRRLLVDA was tested. Which growth estimate did it give?
**A.** < -0.25

**Q.** Which growth estimate does the source give for KLFTGIPCKVE here?
**A.** < -0.25

**Q.** With KLGC as the substance, how does the growth estimate read?
**A.** < -0.25

**Q.** How did the growth estimate turn out when KLGECTGLAEVESACRFKTS was run?
**A.** < -0.25

**Q.** Which growth estimate does the source give for KLGGMSSCLKLGAFQVRLRP here?
**A.** < -0.25

**Q.** With KLGTISTYCITLGS as the substance, how does the growth estimate read?
**A.** < -0.25

**Q.** For KLHEIGRVSLAVSLIA, which growth estimate is on record?
**A.** < -0.25

**Q.** Which growth estimate does the source give for KLHRRLLIYVVMDVPPFCA here?
**A.** < -0.25

**Q.** Which growth estimate does the source give for KLIFDRRLSCRSRLNSD here?
**A.** < -0.25

**Q.** Which growth estimate does the source give for KLIG here?
**A.** -0.231
